This note sets out measurements from the supplement of paper PMC11451515.

One test concerns P12-Ichikawa. The experiment in a line: AUC of viability dose-response curve (% viability x log10 dose units); higher = less sensitive. The following applies: 48 h. The procedure, abridged: (§1)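 Over 48 h at 37°C, leukemia cells in 1536-well plates (500 or 1000 cells/well), adapted to each medium, received library compounds in DMSO at 11 threefold doses from 47 μM to 0.79 nM. CellTiter-Glo One luminescence, normalised per plate to DMSO and cell-free wells, was fitted by a four-parameter log-logistic function of log10 dose. The area under the curve was then integrated by trapezoidal rule, after scaling curves above full viability and removing those that failed quality control.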

The next test deals with NOMO1. Described as above. Particulars: 48 h. A digest of the protocol:
as §1

The mark [1] stands for this setting: RPMI 5 mM glucose + 10% dialyzed FBS.

For `Cc1cc(N[S+](=O)([O-])c2ccc(N)cc2)no1`, the “AUC of viability dose-response curve” value in the test on P12-Ichikawa (HPLM + 10% dialyzed FBS) stood at 474; in the test on P12-Ichikawa (RPMI 5 mM glucose + 10% FBS) it was 474; with P12-Ichikawa (setting [1]), 474; in the test on NOMO1 (HPLM + 10% dialyzed FBS), 466; in the test on NOMO1 (RPMI 5 mM glucose + 10% FBS), 477; in the test on NOMO1 (setting [1]), 471.
